These are yes or no findings as the source states them, for the method shown. Some entries that bind do so weakly or less than the wild type.
Target: T1, human BAFF (residues 82-285) (human, UniProt Q9Y275 82-285)
T1 construct: Coated on plates in the ELISAs; also used biotinylated or free in solution for phage sorting; also called BAFF82-285; BLyS82-285
Experiment: phage display selection on BAFF

By UniProt entry, the sequences of proteins in these tests, tags left out. Where a name states a change or a piece, a line headed by the entry shows the natural chain unless it says otherwise.
UniProt Q9Y275: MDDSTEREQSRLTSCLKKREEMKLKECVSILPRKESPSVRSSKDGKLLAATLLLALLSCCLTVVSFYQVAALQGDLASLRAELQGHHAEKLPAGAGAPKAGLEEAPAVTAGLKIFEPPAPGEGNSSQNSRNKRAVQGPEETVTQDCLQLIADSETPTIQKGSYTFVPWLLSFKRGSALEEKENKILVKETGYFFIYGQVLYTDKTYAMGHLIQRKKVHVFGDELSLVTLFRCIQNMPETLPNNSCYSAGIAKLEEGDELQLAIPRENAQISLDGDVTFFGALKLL

- binding: binds
Binder: ECFDPLVRHWVPCNLLRGAGSP [SEQ ID NO 111]
